“And” between values parts separate entries of the source, which are not always exact repeats. Identical values can stand only once. Counter-ions that a name gives are not always drawn. The list shows a part of the results. Repeats in this data set agree poorly, so a single value says little.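 HEK293T cells were given each compound shortly before transfection with a reporter in which red mCherry is followed by the SARS-CoV-2 frameshift element and then GFP in the −1 frame, so GFP appears only after frameshifting.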
system: SARS-CoV-2 -1 PRF reporter mCherry-FSE-GFP(-1); test: percent effect, decrease of GFP/mCherry ratio (-1 PRF reporter) relative to controls; higher = stronger frameshift inhibition; settings: 10 µM; 24 h; HEK293T

Compared with `COC[C@@H](NC(C)=O)C(=O)NCc1ccccc1` [lacosamide], `C#CCN(C)[C@H](C)Cc1ccccc1` [(R)-(-)-Deprenyl·HCl] is higher in percent effect: -3.7% for the first, -2.82% for the second.

Compared with `COc1ccc2c3c1O[C@H]1C(=O)CC[C@@]4(O)[C@@H](C2)N(C)CC[C@]314` [oxycodone], `COc1ccc2c3c1O[C@H]1[C@@H](OC(C)=O)C=C[C@H]4[C@@H](C2)N(C)CC[C@@]341` is lower in percent effect: 1.34% for the first, -1.8% for the second.

Compared with `Cc1ccc(NC2=NCCN2)c(Cl)c1` [tolonidine], `Cc1cc(O)ccc1Cl` is lower in percent effect: -11.9% for the first, -18.9% for the second.

Compared with `CCC1(c2ccccc2)CCC(=O)NC1=O` (stereo not given) [glutethimide], `CN1C(=O)CN=C(c2ccccc2)c2cc(Cl)ccc21` [diazepam] is lower in percent effect: 0.536% for the first, -14.9% for the second.

First: CNC(C)CC1CCCCC1 (stereo not given) [propylhexedrine]
Second: NCC1(CC(=O)O)CCCCC1
The percent effect of the first is higher: -0.629% for the first, -5.7% for the second.

Going from `Cc1ncc(CNC(=O)N(CCCl)N=O)c(N)n1` [nimustine] to `CCn1cc(C(=O)O)c(=O)c2cc3c(cc21)OCO3` [oxolinic acid], the percent effect falls from 1.44% to 1.09%.

Going from `C[C@]12CC[C@H]3[C@@H](CCC4=C(Cl)C(=O)CC[C@@]43C)[C@@H]1CC[C@@H]2O` [clostebol] to `Oc1ccc2c3c1O[C@H]1[C@@H](O)CC[C@@]4(O)[C@@H](C2)N(CC2CCC2)CC[C@]314` [Nalbuphine], the percent effect rises from -5.3% to 2.52%.

First: NC(=O)C[S@@+]([O-])C(c1ccccc1)c1ccccc1 [armodafinil]
Second: NC(=O)C[S+]([O-])C(c1ccccc1)c1ccccc1 (stereo not given) [modafinil]
The percent effect of the first is higher: -1.75% for the first, -2.95% for the second.

Compared with `CC(C)NC1CCn2c(=O)[nH]c3cccc(c32)C1O` (stereo not given) [zilpaterol], `CN1C[C@H](C(=O)N[C@]2(C)O[C@@]3(O)[C@@H]4CCCN4C(=O)[C@H](Cc4ccccc4)N3C2=O)C=C2c3cccc4[nH]cc(c34)C[C@H]21` is higher in percent effect: -2.72% for the first, -0.954% for the second.

Compared with `CN1[C@@H]2C[C@@H](OC(=O)[C@H](CO)c3ccccc3)C[C@H]1[C@@H]1O[C@@H]12` [Scopolamine], `CCCC[N+]1(C)[C@H]2CC(OC(=O)C(CO)c3ccccc3)C[C@H]1[C@H]1O[C@H]12` (stereo not given in full) [Scopolamine N-butyl] is lower in percent effect: 7.62% for the first, 2% for the second.

Compared with `C=CCC1(C(C)CCC)C(=O)NC(=O)NC1=O` (stereo not given) [secobarbital], `CCN(CC)CCN1C(=O)CN=C(c2ccccc2F)c2cc(Cl)ccc21` [flurazepam] is higher in percent effect: -1.06% for the first, 1.46% for the second.

Compared with `CC1Sc2c(C(=O)O)c(=O)c3cc(F)c(N4CCNCC4)cc3n21` (stereo not given) [ulifloxacin], `O=C1Nc2ccc(Cl)cc2C(c2ccccc2Cl)=NC1O` (stereo not given) [lorazepam] is lower in percent effect: -0.726% for the first, -4.89% for the second.

First: Cc1ccccc1-n1c(/C=C/c2ccccn2)nc2ccccc2c1=O [piriqualone]
Second: CN1C(=O)[C@@H](NC(=O)c2cc3ccccc3[nH]2)N=C(c2ccccc2)c2ccccc21 [devazepide]
The percent effect of the first is higher: -9.68% for the first, -11.1% for the second.

First: OC1(c2ccc(Cl)cc2)c2ccccc2C2=NCCN21 (stereo not given) [mazindol]
Second: Clc1ccc(C(OCCN2CCCCC2)c2ccccc2)cc1 (stereo not given) [cloperastine]
The percent effect of the first is lower: 2.24% for the first, 2.58% for the second.

Compared with `CC(C)(C)NCC(O)c1ccc(O)c(O)c1` (stereo not given) [colterol], `Oc1ccc2c3c1O[C@H]1c4oc5ccccc5c4C[C@@]4(O)[C@@H](C2)N(CC2CC2)CC[C@]314` [Naltriben methanesulfonate hydrate] is lower in percent effect: -1.61% for the first, -3.1% for the second.

Going from `Cc1ccc(N=CN(C)C=Nc2ccc(C)cc2C)c(C)c1` to `C=CCN1CC[C@]23CCCC[C@H]2[C@H]1Cc1ccc(O)cc13` [Lorfan], the percent effect rises from -14.9% to -0.715%.

First: CCNC1(c2cccs2)CCCCC1=O (stereo not given)
Second: CCCN1CCC[C@@H]2Cc3n[nH]cc3C[C@H]21 [quinpirole]
The percent effect of the first is higher: -0.55% for the first, -1.05% for the second.

Going from `O=[N+]([O-])C(Br)(CO)CO` [bronopol] to `COC(=O)[C@@H]1[C@H]2CC[C@@H](C[C@@H]1O)N2C`, the percent effect falls from 1.14% to 0.135%.

Going from `CC(C)(O)C(Cl)(Cl)Cl` to `NN=C(N)N`, the percent effect falls from -1.77% to -7.84%.

`[O-][n+]1ccccc1[S-].[O-][n+]1ccccc1[S-].[Zn+2]` was tested, and the percent effect was -8.07%.

With `C[C@]12CC[C@H]3[C@@H](CCC4=CC(=O)CC[C@@]43C)[C@@H]1CC[C@@H]2O` [testosterone] the percent effect was 0.578% and -5.38%.

— the supplement of paper PMC8256030
